## Screening data, single-dose tests

Protein sequences, listed by entry. Tags and fused reporters are not part of them. Residues count along the entry.
UniProt A4I591, 1-473: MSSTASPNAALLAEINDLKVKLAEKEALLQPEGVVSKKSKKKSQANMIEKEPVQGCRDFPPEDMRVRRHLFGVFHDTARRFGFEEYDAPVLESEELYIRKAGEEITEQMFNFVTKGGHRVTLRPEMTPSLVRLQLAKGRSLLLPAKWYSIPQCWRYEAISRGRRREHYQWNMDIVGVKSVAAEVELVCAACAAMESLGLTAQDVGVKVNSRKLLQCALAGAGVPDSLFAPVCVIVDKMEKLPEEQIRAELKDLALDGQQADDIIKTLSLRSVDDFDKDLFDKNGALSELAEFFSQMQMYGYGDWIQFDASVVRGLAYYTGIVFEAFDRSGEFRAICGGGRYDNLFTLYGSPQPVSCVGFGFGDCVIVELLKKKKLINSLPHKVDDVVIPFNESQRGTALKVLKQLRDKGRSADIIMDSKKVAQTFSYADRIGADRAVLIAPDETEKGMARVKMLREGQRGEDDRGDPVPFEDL
UniProt P9WPC5, whole entry: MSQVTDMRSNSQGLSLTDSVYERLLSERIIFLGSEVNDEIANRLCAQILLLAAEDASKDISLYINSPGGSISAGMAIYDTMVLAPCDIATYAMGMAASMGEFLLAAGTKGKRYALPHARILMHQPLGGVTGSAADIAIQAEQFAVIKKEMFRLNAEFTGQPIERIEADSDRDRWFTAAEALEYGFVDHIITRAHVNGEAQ
UniProt P9WPC3, whole entry partner: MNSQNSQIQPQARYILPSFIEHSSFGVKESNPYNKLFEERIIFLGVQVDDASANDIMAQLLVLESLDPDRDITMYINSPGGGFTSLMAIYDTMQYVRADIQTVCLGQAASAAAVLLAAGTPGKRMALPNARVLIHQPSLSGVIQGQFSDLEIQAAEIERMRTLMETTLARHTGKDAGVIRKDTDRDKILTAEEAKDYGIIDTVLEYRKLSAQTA

Each number is a percent effect as filed.
The record does not define 0% and 100%; most values in the screen are far below 50% and negative numbers occur (in some assays of this library far below -100).
Compounds were drawn at random from those tested, without regard to their results.
A dash means the value is not listed here; it may have been measured.

LiHisRS: 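Enzyme assay of histidyl-tRNA synthetase; the read-out is not stated. Target: Histidine-tRNA ligase, Leishmania infantum (UniProt A4I591). Tested at 30 µM. The record gives no direction; compounds that gave an IC50 in retests scored well above the rest, so higher reads as stronger inhibition. The assay is labelled LdHisRS but filed under L. infantum. Of about 69,000 compounds tested this way, about 410 (0.6%) reached 50% or more in at least one test.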
Toxoplasma: 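Assay of Toxoplasma gondii numbers, read through their beta-galactosidase reporter with a colour substrate. Concentration: 10 µM. Higher reads as fewer parasites (inferred from which compounds were picked for retests). About 67,000 compounds were tested under these conditions; 0.38% (about 260) showed 50% or more at least once.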
ClpP1P2: 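ClpP1P2, Mycobacterium tuberculosis (UniProt P9WPC5 and UniProt P9WPC3). Protease assay of ClpP1P2, read by the AMC dye that it sets free. Compounds at 50 µM. Higher reads as stronger inhibition, judged from the few compounds that gave an IC50. Most other retested compounds had strongly negative values. About 69,000 compounds were tested under these conditions; 0.015% (about 10) showed 50% or more at least once.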
T. brucei: 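Whole-parasite assay of Trypanosoma brucei over 72 hours; the read-out is not stated. Compounds at 30 µM. Direction is inferred from retests: higher values go with stronger inhibition. Values scatter widely below zero; nearly all retest evidence comes from the higher of the two concentrations used. Size under these conditions: about 64,000 compounds, about 940 of them at 50% or above in at least one test.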
Leishmania in macrophages: 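Cell assay of Leishmania donovani living inside macrophages; the read-out is not stated. Compounds at 30 µM. Direction is inferred from retests: higher values go with stronger inhibition. About 69,000 compounds were tested under these conditions; 1.5% (about 1,000) showed 50% or more at least once.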

SMILES	LiHisRS	Toxoplasma	ClpP1P2	T. brucei	Leishmania in macrophages
Cc1nc2c(c(N(C)C)n1)CCN(C(=O)c1ccc(N)nc1)C2	26.19	-2.97	-0.6469	-15.14	14.96
CNc1ncc(CN(C)c2ncnc3onc(C)c23)cn1	23.08	4.868	10.07	-9.744	4.823
CN1CCN(CC2CC2)C(=O)c2cnc(N3CCCCC3)nc21	4.054	14.64	-6.172	-19.27	-49.81
CN(C)C(=O)CN1CCN(C(=O)c2cnn(-c3ccccc3Cl)c2)CC1	12.28	-0.2014	-8.86	11.99	13.32
Cc1ccc2cccc(Oc3nc(C)c(C(=O)O)s3)c2n1	10.87	-4.498	16.52	-37.76	-11.35
CN(CC1CC1)c1ccc2ccc(C(=O)NC3CCCCC3)cn12	22.94	-6.888	21.51	-75.94	14.27
COCCCC(=O)N1CC(=O)Nc2cc(Br)ccc21	16.44	-10.98	-12.94	6.111	12.61
O=C(N1CCCC1)N1CCO[C@H]2[C@@H](OCc3cccnc3)CC[C@@H]21	14.29	-	-3.849	-	-
CS(=O)(=O)N1CCOCC2(CCN(C(=O)c3cnccn3)CC2)C1	19.35	11.61	0.1712	-34.62	-7.545
CCn1cc2c(n1)C(COC)CN(Cc1ccoc1)C2 (centres undefined)	0	-9.49	5.056	-13.19	24.13
Cc1nc(CN(C)C2CCN(CC3CCCCC3)C2)no1 (centres undefined)	30.77	0.6462	16.76	28.41	31.73
Cc1nn(C)c(N(C)C)c1CNCc1cccc(CN(C)C)c1.Cl	-	10.26	-	-3.382	13.33
O=C(CCCc1ccccc1)Nc1cnc(N2CCOCC2)nc1	15.25	-11.51	-15.63	-6.61	26.52
Cc1ccc(O)c(C(=O)N2CCCC2c2nncn2CC(C)C)c1 (centres undefined)	12.68	-2.074	0.007791	-24.22	28.42
Cc1cc(C2CCC2)nc(N2CCC3(CCCNC3=O)C2)n1 (centres undefined)	14.63	18.24	-16.2	-25.7	27.3
O=C(O)C(F)(F)F.O=C(O)C(F)(F)F.c1ccc(CN2CCc3ncnc(-c4cccnc4)c3CC2)nc1	-	4.47	-	-18.63	44.14
Cc1ccccc1C(C)NC(=O)CN1CCN(Cc2cccs2)CC1 (centres undefined)	15.49	-0.1079	1.087	-47.18	-4.609
CC(C(=O)NCc1ccc(N2CCCC2)nc1)n1cncn1 (centres undefined)	14.29	-29.73	-14.18	-5.573	15.06
COc1ccc2c3c1CN(C(=O)N(C)C)CC3=CC(C)(C)CO2	20.41	-4.705	-3.093	-33.72	-5.47
CCC(CNC(=O)CNC(C)=O)Oc1cccc(F)c1 (centres undefined)	8.791	3.167	-0.6863	-23.01	5.745
O=C(CCc1cccc(F)c1F)N1CCN(Cc2ccco2)CC1	3.846	4.27	-13.68	-9.573	3.762
O=C1c2cnc(N3CCOCC3)nc2CN1c1ccc2c(c1)OCO2	19.81	10.66	-6.345	-2.986	21.3
[H][C@]12CCC(=O)N(Cc3csc(C)n3)[C@@]1([H])CCN2C(=O)COCC	-	21.66	-	-17.88	39.47
O=C(c1cn(-c2cc(N3CCOCC3)ncn2)cn1)N1CCSCC1	25	2.518	2.239	-66.31	41.67
FC1(F)CCN(Cc2ccccn2)CC12CCN(c1ncccn1)C2 (centres undefined)	20.91	-	6.959	-	-
Cc1nc(CNC(=O)C(C)Oc2ccccc2F)no1 (centres undefined)	7.042	24.76	-8.296	12.71	7.337
Cc1nn(C)c(NC(=O)C2SCCc3ccccc32)c1C (centres undefined)	16.67	4.543	2.232	-35.79	41.8
Cc1cccnc1CN1CCN(C(=O)c2cnn(C(C)C)c2)CC1	13.04	-	8.306	-46.1	14.64
COCCNC(=O)[C@@H]1C[C@@H]2CCN(c3ncccn3)C[C@H]2O1	13.89	-	9.851	-	-
CC(C)c1nn(C)c(N(C)C)c1CNC(C)c1ccccc1F (centres undefined)	10.43	-0.8999	19.96	-28.72	10.15
CCc1nc2n(n1)CC(NCCc1cccs1)CC2 (centres undefined)	3.896	4.371	-23.88	-16.47	-0.6796
c1cn(CCNc2nc(NC3CC3)nc3c2CCNCC3)nn1	21.28	-2.403	-5.837	-18.17	3.22
O=C(CN1CCOc2ccc(Cl)cc21)NCCCn1cccn1	0	-44.12	-5.239	-49.69	-10.06
O=C(O)C(F)(F)F.O=C(O)C(F)(F)F.[H][C@]12C[C@@H](CN3CCCC3)N(C)[C@@]1([H])CCN(C(=O)Cc1cccs1)C2	-	6.441	-	-27.37	31.6
Cc1ccnc(NC(=O)C2CCCO2)c1 (centres undefined)	10	-6.25	6.335	-50.17	-23.5
Cc1ccc(CC(=O)N2CCn3cc(Cn4cncn4)nc3C2)cc1	21.05	1.521	-6.564	-97.04	39.21
Cc1ccc(N2CCO[C@H]3CN(Cc4ccncc4)C[C@H]32)nn1	4.511	-	-4.277	-	-
c1ccc(NCCn2cc(C3CCCNC3)nn2)cc1 (centres undefined)	6.667	-6.088	-18.9	-20.07	7.486
N#Cc1ccc(SCCC(=O)NC(N)=O)cc1	11.76	11.32	-1.629	-35.29	-17.35
Cc1ccc(-n2nnc(C(=O)NCC3(CO)CC3)c2C2CC2)cc1	11.61	-10.91	-26.66	-15.78	33.27
Cc1nc[nH]c1CNCc1cccnc1N(C)C1CCCCC1	6.329	-28.01	-21.23	-4.478	16.53
NC(=O)c1cccc(CNC(=O)NCCOc2ccc(F)c(F)c2)c1	9.589	-4.804	-8.626	-18.49	10.94
CC(C)c1cccc(-n2cc(O)c(C(=O)NCCCn3cccn3)n2)c1	11.11	0.5823	-9.167	10.53	7.816
CC1CCC(NC(=O)c2nn(C)cc2I)CC1 (centres undefined)	10.71	5.481	1.175	-13.08	-1.323

4 of the entries, repeated:

* Cc1nn(C)c(NC(=O)C2SCCc3ccccc32)c1C (centres undefined) : LiHisRS: 16.67%; Toxoplasma: 4.543%; ClpP1P2: 2.232%; T. brucei: -35.79%; Leishmania in macrophages: 41.8%
* Cc1nc(CNC(=O)C(C)Oc2ccccc2F)no1 (centres undefined) : LiHisRS: 7.042%; Toxoplasma: 24.76%; ClpP1P2: -8.296%; T. brucei: 12.71%; Leishmania in macrophages: 7.337%
* CCC(CNC(=O)CNC(C)=O)Oc1cccc(F)c1 (centres undefined) : LiHisRS: 8.791%; Toxoplasma: 3.167%; ClpP1P2: -0.6863%; T. brucei: -23.01%; Leishmania in macrophages: 5.745%
* FC1(F)CCN(Cc2ccccn2)CC12CCN(c1ncccn1)C2 (centres undefined) : LiHisRS: 20.91%; ClpP1P2: 6.959%

From ChEMBL document CHEMBL3988442, “University of Dundee, Small-Polar-MMV Screening Library” (2021).